Assay results as given in US20070249822A1, “Photolabile Coumarinylmethyl Esters of Cyclic Nucleotides, Methods for their Preparation and Their Use” (Forschungsverbund Berlin E.V., priority 2000, published 2007).
Some entries share one result that the patent states for a list of compounds. At least one compound was matched to its structure with a doubt left.

Assay: Solubility of coumarinylmethyl-caged cyclic nucleotides in acetonitrile/HEPES buffer (saturation concentration by HPLC)
Type: physicochemical
Settings: acetonitrile/HEPES buffer (5:95), pH 7.2, room temperature
Method: Comparison of the Solubilities of Miscellaneous coumarinyl-methyl-caged Cyclic Nucleotides in Acetonitrile/HEPES Buffer (5:95) at pH 7.2 and Room Temperature
A suspension of the compounds in the specified solvent was treated for 5 min in an ultrasonic bath, undissolved components were removed by centrifugation, and the concentration in the solution was determined using HPLC. The following saturation concentrations were determined: […]

SMILES | saturation concentration [µM]
Nc1nc2c(nc(Br)n2C2OC3COP(=O)(OCc4cc(=O)oc5cc(OCC(=O)O)c(OCC(=O)O)cc45)OC3C2O)c(=O)[nH]1 (stereo not drawn) [[6,7-Bis(carboxymethoxy)coumarin-4-yl]methyl-caged 8-Br-cGMP] [listing 1 of 2 here] | > 500
Nc1nc2c(nc(Br)n2C2OC3COP(=O)(OCc4cc(=O)oc5cc(OCC(=O)O)c(OCC(=O)O)cc45)OC3C2O)c(=O)[nH]1 (stereo not drawn) [[6,7-Bis(carboxymethoxy)coumarin-4-yl]methyl-caged 8-Br-cGMP] [listing 2 of 2 here] | > 1000
Nc1nc2c(ncn2C2OC3COP(=O)(OCc4cc(=O)oc5cc(OCC(=O)O)c(OCC(=O)O)cc45)OC3C2O)c(=O)[nH]1 (stereo not drawn) [[6,7-Bis(carboxymethoxy)coumarin-4-yl]methyl-caged cGMP (axi] | > 500
